According to publication doi:10.1101/2025.08.28.672006:
Changes are numbered by the printed parent chain. Results are given in words; binding and its absence hold for the method and conditions named. Binding seen in cells or lysates may run through a third protein. Some results given as binding are weak or reduced against the parent protein; the word gives no strength. Tags and fused reporters may be left off the sequences shown.

By UniProt entry, the sequences of proteins in these tests, tags left out.
UniProt Q86UR5: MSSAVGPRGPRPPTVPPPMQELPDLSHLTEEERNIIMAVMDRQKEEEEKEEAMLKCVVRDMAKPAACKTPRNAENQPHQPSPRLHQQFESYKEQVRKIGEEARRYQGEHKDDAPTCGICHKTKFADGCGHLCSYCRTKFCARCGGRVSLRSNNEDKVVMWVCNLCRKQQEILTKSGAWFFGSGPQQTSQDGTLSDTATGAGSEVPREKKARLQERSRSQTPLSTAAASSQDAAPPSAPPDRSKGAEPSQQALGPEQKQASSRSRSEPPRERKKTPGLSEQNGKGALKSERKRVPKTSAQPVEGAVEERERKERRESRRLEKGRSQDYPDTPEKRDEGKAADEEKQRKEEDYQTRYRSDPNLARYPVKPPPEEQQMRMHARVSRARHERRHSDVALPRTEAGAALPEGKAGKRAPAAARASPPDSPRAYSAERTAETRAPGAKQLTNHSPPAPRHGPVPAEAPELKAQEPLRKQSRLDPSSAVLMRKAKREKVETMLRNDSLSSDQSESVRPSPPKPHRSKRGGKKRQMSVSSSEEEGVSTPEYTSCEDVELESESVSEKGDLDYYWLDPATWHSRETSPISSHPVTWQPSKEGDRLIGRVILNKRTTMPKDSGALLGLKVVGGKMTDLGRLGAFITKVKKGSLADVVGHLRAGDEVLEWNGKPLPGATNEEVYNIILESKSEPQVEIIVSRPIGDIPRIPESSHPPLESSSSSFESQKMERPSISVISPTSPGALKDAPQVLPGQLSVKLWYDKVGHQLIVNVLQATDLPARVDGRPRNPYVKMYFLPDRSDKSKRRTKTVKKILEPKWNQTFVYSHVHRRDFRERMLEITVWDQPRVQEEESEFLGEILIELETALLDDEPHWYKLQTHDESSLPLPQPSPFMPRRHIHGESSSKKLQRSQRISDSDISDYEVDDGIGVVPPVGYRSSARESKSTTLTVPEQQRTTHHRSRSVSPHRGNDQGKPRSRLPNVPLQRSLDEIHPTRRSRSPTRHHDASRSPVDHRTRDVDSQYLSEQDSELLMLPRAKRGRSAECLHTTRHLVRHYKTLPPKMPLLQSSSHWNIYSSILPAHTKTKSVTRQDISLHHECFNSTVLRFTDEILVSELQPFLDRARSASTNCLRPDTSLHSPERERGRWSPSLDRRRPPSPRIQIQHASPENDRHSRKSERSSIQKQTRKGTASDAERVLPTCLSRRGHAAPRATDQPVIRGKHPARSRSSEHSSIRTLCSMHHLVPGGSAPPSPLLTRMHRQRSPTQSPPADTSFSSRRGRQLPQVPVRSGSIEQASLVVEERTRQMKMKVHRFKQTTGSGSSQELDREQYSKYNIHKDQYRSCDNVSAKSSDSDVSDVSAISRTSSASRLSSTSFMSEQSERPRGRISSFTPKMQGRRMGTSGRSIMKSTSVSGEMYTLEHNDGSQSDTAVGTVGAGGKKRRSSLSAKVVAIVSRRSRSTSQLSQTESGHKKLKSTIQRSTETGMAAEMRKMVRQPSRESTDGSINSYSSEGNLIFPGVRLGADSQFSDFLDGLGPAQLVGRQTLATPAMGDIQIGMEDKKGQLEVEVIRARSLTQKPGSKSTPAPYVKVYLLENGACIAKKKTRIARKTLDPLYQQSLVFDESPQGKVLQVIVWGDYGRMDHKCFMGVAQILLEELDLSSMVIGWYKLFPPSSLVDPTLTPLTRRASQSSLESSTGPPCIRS

Tests used:
[1] = biological target: T1, HA-RAB3A T86E (UniProt P20336); test: co-IP; HEK-293 cells co-transfected with HA-RAB3 constructs and myc-flag-RIM1; lysate (20 mM Tris-HCl pH 7.5, 150 mM NaCl, 1 mM EDTA, 0.3% Triton-X100, 10% glycerol) on magnetic anti-HA beads, 1 h at 4 °C; Western blot
T1 sequence: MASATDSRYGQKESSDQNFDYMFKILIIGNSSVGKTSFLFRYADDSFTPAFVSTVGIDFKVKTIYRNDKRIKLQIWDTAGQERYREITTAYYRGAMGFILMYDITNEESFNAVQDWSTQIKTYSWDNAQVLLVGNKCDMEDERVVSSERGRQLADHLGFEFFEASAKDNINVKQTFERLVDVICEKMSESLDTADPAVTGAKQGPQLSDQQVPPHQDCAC

[2] = biological target: T2, HA-RAB3A (UniProt P20336); test: as above
T2 sequence: T1 sequence with E86T

binding [1]: binds
binding [2]: binds
Substance: myc-flag-RIMS1 (from UniProt Q86UR5 1-1692)
